These are yes or no findings as the source states them, for the method shown. Some results given as binding are weak or reduced against the parent protein; the word gives no strength.
B1: monoclonal antibody 1H5 (antibody, IgG3, V domains shown)
VH: EVKLVESGGGLVKPGGSLKLSCAASGFAFSSYDMSWVRQTPEKRLEWVATISSGGSYTFYPESVKGRITVYRDNARNTLYLQMSSLRSEDTALYYCATLHYNYERGAVDYWGQGTSVTVSS
VL: DVVVTQTPSSMYASLGERVSITCKASQDINRYLSWIQQKPGKSPKTLIYRTDRLVEGAPSRFSGSGSGQDYSLTISSLEYEDMGIYNCLQYDEFPVTFGAGTKLEIKR
B2: monoclonal antibody 2B9 (antibody, IgG2b, V domains shown)
VH: IQLVQSGPELKKPGETVKISCKASGYTFTDYAMHWVKQAPAKGLKWMGWINTETGEPTYADDFKGRFAFSLETSASTAYLQINNLKNEDTATYFCAGDPLDYWGQGTTLTVSS
VL: DVVVTQTPLSLPVSFGDQVSISCRSSQSLANSYGNTYLSWYLHKPGQSPQLLIYEISNRFSGVSDRFSGSGSGTDFTLKISTIKPEDLGIYYCLQGTHQPWTFGGGTKLEIK
B3: monoclonal antibody 2D2 (antibody, V domains shown)
VH: QIQLVQSGPELKKPGETVKISCKASGYTFTDYAMHWVKQAPAKGLKWMGWINTETGEPTYADDFKGRFAFSLETSASTAYLQINNLKNEDTATYFCAGDPLDYWGQGTTLTVSS
VL: B2 VL

Sequences of proteins named here, by UniProt entry; tags and fusion partners are left off. Residues count along the entry.
UniProt P07359, residues 17-652: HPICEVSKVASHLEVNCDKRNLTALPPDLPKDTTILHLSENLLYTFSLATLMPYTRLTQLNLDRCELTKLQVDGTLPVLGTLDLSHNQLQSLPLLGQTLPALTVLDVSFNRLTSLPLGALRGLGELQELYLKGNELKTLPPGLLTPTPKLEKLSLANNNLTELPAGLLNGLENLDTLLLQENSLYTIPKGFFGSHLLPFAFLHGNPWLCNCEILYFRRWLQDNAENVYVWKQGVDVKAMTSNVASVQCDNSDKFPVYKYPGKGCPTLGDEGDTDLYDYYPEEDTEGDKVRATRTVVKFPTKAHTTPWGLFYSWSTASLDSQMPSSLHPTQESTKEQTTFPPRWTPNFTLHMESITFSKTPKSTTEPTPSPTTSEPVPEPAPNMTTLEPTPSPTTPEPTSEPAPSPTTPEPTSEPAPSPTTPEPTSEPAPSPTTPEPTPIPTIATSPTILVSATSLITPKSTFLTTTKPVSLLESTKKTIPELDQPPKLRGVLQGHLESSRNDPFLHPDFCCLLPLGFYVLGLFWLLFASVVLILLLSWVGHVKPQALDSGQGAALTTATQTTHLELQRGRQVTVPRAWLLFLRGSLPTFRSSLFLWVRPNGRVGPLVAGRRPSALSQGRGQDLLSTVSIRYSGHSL

Biological target: human glycoprotein Ib alpha (GPIba) on platelets (human) (UniProt P07359)
Assay: flow cytometry on washed human platelets, FITC goat anti-mouse IgG

Binder | binding
B1 | binds
B2 | binds
B3 | binds

From patent US20160009801A1 (EMORY UNIVERSITY, published 2016)
